Source: publication PMC8096781
Results are given in words; binding and its absence hold for the method and conditions named. Binding seen in cells or lysates may run through a third protein. A result given as binding can be weak or reduced; the word gives no strength. Tags and fused reporters may be left off the sequences shown.

Molecular target: T1, GST-FOXM1D (UniProt Q08050)
T1 sequence: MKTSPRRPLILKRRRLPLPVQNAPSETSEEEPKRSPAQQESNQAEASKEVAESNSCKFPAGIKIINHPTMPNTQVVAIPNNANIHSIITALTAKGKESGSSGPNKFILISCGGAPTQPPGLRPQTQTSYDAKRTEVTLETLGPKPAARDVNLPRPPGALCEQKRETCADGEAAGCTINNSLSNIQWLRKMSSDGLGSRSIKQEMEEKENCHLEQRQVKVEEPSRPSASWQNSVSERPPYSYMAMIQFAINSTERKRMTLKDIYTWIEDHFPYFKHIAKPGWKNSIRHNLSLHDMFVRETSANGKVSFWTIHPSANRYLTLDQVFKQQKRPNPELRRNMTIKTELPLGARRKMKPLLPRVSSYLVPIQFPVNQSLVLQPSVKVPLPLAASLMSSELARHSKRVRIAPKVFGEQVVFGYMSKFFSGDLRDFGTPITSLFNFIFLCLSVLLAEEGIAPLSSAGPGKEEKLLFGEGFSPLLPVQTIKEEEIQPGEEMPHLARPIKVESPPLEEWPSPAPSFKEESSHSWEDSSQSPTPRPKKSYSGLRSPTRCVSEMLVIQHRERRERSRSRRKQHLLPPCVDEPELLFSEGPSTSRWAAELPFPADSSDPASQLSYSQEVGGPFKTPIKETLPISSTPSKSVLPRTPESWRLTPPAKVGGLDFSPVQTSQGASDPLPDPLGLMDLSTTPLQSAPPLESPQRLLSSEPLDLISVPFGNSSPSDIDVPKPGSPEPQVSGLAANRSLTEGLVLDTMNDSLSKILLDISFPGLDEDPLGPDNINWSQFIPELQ
Experiment: pull-down; GST-FOXM1D or control GST bound to MagneGST glutathione particles, incubated with lysates of transfected HEK293T cells for 1 h at 4 °C; western blot with anti-HA and anti-PKM2; only the target purified

Substance | binding
HA-tagged B domain of PKM2 (domain or fragment) | binds
HA-tagged A1 domain of PKM2 (domain or fragment) | no binding
